PubChem BioAssay AID686937 | Drosophila RNAi Screening Center – 2013
The deposit covers about 23,000 reagents; below is an unselected part of those with a known target gene and a result. 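Reduced-secretion tags in replicate 1 do not always agree with the z-scores; no criterion for assigning the tags was given.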 The numbers tell different reagents against one gene apart. Further read-outs or replicates are left out here. Not stated in the record: the amount of reagent.

Screen: 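Genes in the fly needed for secretion of protein constitutively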 (primary screen)
Cell system: Drosophila S2 cells expressing secreted horseradish peroxidase
Reagents: long dsRNA against Drosophila genes
Duration: about 5.5 days (5 days dsRNA, then 12 h reporter induction)
Conditions: reporter expression induced after 5 days of dsRNA, read 12 h later; inducer not stated
Read-out: 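Chemiluminescent measurement of peroxidase in the medium 12 h after reporter induction, following 5 days of dsRNA, given as a z-score per plate; higher means more secretion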
Direction: z-score: higher = more reporter secreted into medium

gene | dsRNA no. | z-score, replicate 1 | z-score, replicate 2 | z-score, replicate 3
Cpsf160 | 1 | -0.16 | 0.01 | –
Bhmt | 1 | 0.46 | 0.38 | –
CG10337 | 1 | 0.33 | 0.48 | –
CG13124 | 1 | 0.39 | 0.3 | –
CG33460 | 1 | 0.27 | 0.41 | –
Ser12 | 1 | 0.19 | 0.16 | –
CG1213 | 1 | 0.33 | 0.34 | –
ttm2 | 1 | 0.34 | 0.32 | –
Pms2 | 1 | 0.24 | 0.24 | –
CG18249 | 1 | 0.19 | 0.39 | –
CG4945 | 1 | 0.21 | 0.16 | –
CG15471 | 1 | 0.29 | -6.21 | –
Or42a | 1 | 0.2 | 0.02 | –
CG17029 | 1 | 0.48 | 0.45 | –
CG11771 | 1 | 0.41 | 0 | –
Arl1 | 1 | 0.28 | 0.22 | –
eIF3g1 | 1 | -2.88 | -3.58 | –
CG17959 | 1 | 0.31 | 0.24 | –
CG7530 | 1 | 0.37 | 0.47 | -0.37
Or33c | 1 | 0.5 | -0.48 | –
CG3556 | 1 | 0.25 | 0.12 | –
CG30485 | 1 | 0.31 | 0.33 | –
axo | 1 | -1.34 | 0.08 | –
axo | 2 | 0.6 | 0.46 | –
axo | 3 | -2.79 | -0.68 | –
axo | 4 | 0.41 | -0.14 | –
Ada2b | 1 | -0.03 | -0.16 | –
CG7800 | 1 | 0.35 | 0.69 | –
CG9368 | 1 | 0.15 | 0.3 | –
Naa20B | 1 | -0.04 | 1.5 | –
Mcr | 1 | 0.4 | 0.2 | –
Efhc1.2 | 1 | 0.08 | -0.04 | –
RhoGDI | 1 | 0.22 | 0.37 | –

Sorted by “z-score, replicate 2” (highest first): some entries from above
gene | dsRNA no. | z-score, replicate 1 | z-score, replicate 2 | z-score, replicate 3
CG7530 | 1 | 0.37 | 0.47 | -0.37
CG17959 | 1 | 0.31 | 0.24 | –
Arl1 | 1 | 0.28 | 0.22 | –
Or33c | 1 | 0.5 | -0.48 | –
eIF3g1 | 1 | -2.88 | -3.58 | –
